Taken from: PubChem BioAssay AID1224830 (NIAID, 2016)
Shown is one part, drawn at random, of about 18,000 reagents. About 2,900 of them (16%) were called active. 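Calls are made per well; low scores hint the gene aids the LPS response, high scores that it dampens it.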 A number with no mark means an inactive call. Repeated entries: four replicate wells of each siRNA pool.

- Purpose: 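Regulators of TLR4 signalling towards TNF-alpha in macrophage-like cells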 (primary screen)
- System: human THP-1 monocytic leukaemia cells, TNF dual-luciferase reporter clone, PMA-differentiated to macrophage-like cells
- Reagent: siRNA pool against human genes, 50 nM
- Time to read-out: LPS for 4 h, given about 3 days after siRNA transfection
- Conditions: bacterial LPS (TLR4 ligand), 10 ng/ml
- Measurement: 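TNF firefly reporter luminescence divided by renilla, normalised to the plate median, then turned into a robust z-score for each replicate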
- Direction: TNF reporter robust z-score: higher = stronger TNF reporter response to LPS
- Hit rule: 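a well is active when its z-score exceeds 2.8 or falls below -1.5; control wells carry no call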

The opening 9 entries, ahead of the listing:
no.	gene	PubChem SID	TNF reporter robust z-score
1	AKAP6 (A-kinase anchoring protein 6)	SID315453312	2.74
2	AKAP6 (A-kinase anchoring protein 6)	SID315453312	2.36
3	AKAP6 (A-kinase anchoring protein 6)	SID315453312	2.08
4	AKAP6 (A-kinase anchoring protein 6)	SID315453312	4.09 (active)
5	OR6C76 (olfactory receptor family 6 subfamily C member 76)	SID315464640	-1.08
6	OR6C76 (olfactory receptor family 6 subfamily C member 76)	SID315464640	-0.36
7	OR6C76 (olfactory receptor family 6 subfamily C member 76)	SID315464640	0.15
8	OR6C76 (olfactory receptor family 6 subfamily C member 76)	SID315464640	-0.46
9	UFSP2 (UFM1 specific peptidase 2)	SID315457596	-0.3

Main list, from the first entry:
no.	gene	PubChem SID	TNF reporter robust z-score
1	AKAP6 (A-kinase anchoring protein 6)	SID315453312	2.74
2	AKAP6 (A-kinase anchoring protein 6)	SID315453312	2.36
3	AKAP6 (A-kinase anchoring protein 6)	SID315453312	2.08
4	AKAP6 (A-kinase anchoring protein 6)	SID315453312	4.09 (active)
5	OR6C76 (olfactory receptor family 6 subfamily C member 76)	SID315464640	-1.08
6	OR6C76 (olfactory receptor family 6 subfamily C member 76)	SID315464640	-0.36
7	OR6C76 (olfactory receptor family 6 subfamily C member 76)	SID315464640	0.15
8	OR6C76 (olfactory receptor family 6 subfamily C member 76)	SID315464640	-0.46
9	UFSP2 (UFM1 specific peptidase 2)	SID315457596	-0.3
10	UFSP2 (UFM1 specific peptidase 2)	SID315457596	0.54
11	UFSP2 (UFM1 specific peptidase 2)	SID315457596	-0.63
12	UFSP2 (UFM1 specific peptidase 2)	SID315457596	1.37
13	SRRT (serrate, RNA effector molecule)	SID315456796	1.09
14	SRRT (serrate, RNA effector molecule)	SID315456796	-0.41
15	SRRT (serrate, RNA effector molecule)	SID315456796	-0.8
16	SRRT (serrate, RNA effector molecule)	SID315456796	-0.1
17	WIPI1 (WD repeat domain, phosphoinositide interacting 1)	SID315457376	-0.36
18	WIPI1 (WD repeat domain, phosphoinositide interacting 1)	SID315457376	-0.67
19	WIPI1 (WD repeat domain, phosphoinositide interacting 1)	SID315457376	-1.17
20	WIPI1 (WD repeat domain, phosphoinositide interacting 1)	SID315457376	-1.24
21	CCND3 (cyclin D3)	SID315447742	-1.89 (active)
22	CCND3 (cyclin D3)	SID315447742	-1.3
23	CCND3 (cyclin D3)	SID315447742	-1.63 (active)
24	CCND3 (cyclin D3)	SID315447742	-1.55 (active)
25	FGFBP1 (fibroblast growth factor binding protein 1)	SID315453726	-0.96
26	FGFBP1 (fibroblast growth factor binding protein 1)	SID315453726	-1.19
27	FGFBP1 (fibroblast growth factor binding protein 1)	SID315453726	-1.55 (active)
28	FGFBP1 (fibroblast growth factor binding protein 1)	SID315453726	-1.53 (active)
29	IL32 (interleukin 32)	SID315453142	0.13
30	IL32 (interleukin 32)	SID315453142	0.49
31	IL32 (interleukin 32)	SID315453142	0.16
32	IL32 (interleukin 32)	SID315453142	0.26
33	PIK3CA	SID315450588	-0.12
34	PIK3CA	SID315450588	0.2
35	PIK3CA	SID315450588	-0.66
36	PIK3CA	SID315450588	0.19
37	TAPBP (TAP binding protein)	SID315451755	-0.35
38	TAPBP (TAP binding protein)	SID315451755	-0.41
39	TAPBP (TAP binding protein)	SID315451755	-0.67
40	TAPBP (TAP binding protein)	SID315451755	-0.25
41	ACTR1B (actin related protein 1B)	SID315453833	0.11
42	ACTR1B (actin related protein 1B)	SID315453833	-0.23
43	ACTR1B (actin related protein 1B)	SID315453833	-0.3
44	ACTR1B (actin related protein 1B)	SID315453833	0.19
45	SRMS	SID315451634	-0.01
46	SRMS	SID315451634	-0.76
47	SRMS	SID315451634	-0.9
48	SRMS	SID315451634	-0.75
49	CFHR5 (complement factor H related 5)	SID315459871	0.12
50	CFHR5 (complement factor H related 5)	SID315459871	0.96
51	CFHR5 (complement factor H related 5)	SID315459871	0.73
52	CFHR5 (complement factor H related 5)	SID315459871	0.68
53	KRABD4 (KRAB domain containing 4)	SID315457734	0.3
54	KRABD4 (KRAB domain containing 4)	SID315457734	-0.4
55	KRABD4 (KRAB domain containing 4)	SID315457734	0.13
56	KRABD4 (KRAB domain containing 4)	SID315457734	-0.08
57	BARHL2 (BarH like homeobox 2)	SID315464159	0.14
58	BARHL2 (BarH like homeobox 2)	SID315464159	0.45
59	BARHL2 (BarH like homeobox 2)	SID315464159	1.75
60	BARHL2 (BarH like homeobox 2)	SID315464159	1.15
61	RPS17 (ribosomal protein S17)	SID315451236	-0.48
62	RPS17 (ribosomal protein S17)	SID315451236	-0.07
63	RPS17 (ribosomal protein S17)	SID315451236	-0.76
64	RPS17 (ribosomal protein S17)	SID315451236	-0.34
65	DDX3X (DEAD-box helicase 3 X-linked)	SID315448275	-1.36
66	DDX3X (DEAD-box helicase 3 X-linked)	SID315448275	-1.45
67	DDX3X (DEAD-box helicase 3 X-linked)	SID315448275	-0.72
68	ITGAD (integrin subunit alpha D)	SID315449550	0.03
69	ITGAD (integrin subunit alpha D)	SID315449550	0.36
70	ITGAD (integrin subunit alpha D)	SID315449550	0.04
71	ITGAD (integrin subunit alpha D)	SID315449550	0.59
72	ELP5 (elongator acetyltransferase complex subunit 5)	SID315455349	-1.08
73	ELP5 (elongator acetyltransferase complex subunit 5)	SID315455349	-0.81
74	ELP5 (elongator acetyltransferase complex subunit 5)	SID315455349	-0.68
75	ELP5 (elongator acetyltransferase complex subunit 5)	SID315455349	-1.57 (active)
